Source: PubChem BioAssay AID624150 (Cancer Research UK Cambridge, 2012)
Assay: 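Which chromatin factors steer differentiation of epidermal stem cells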 (primary screen). Cell system: primary human epidermal keratinocytes. Knock-down reagent: siRNA pool against human genes, 1-2 µM siRNA in 20 µl nucleofection. Timing: 72 h after transfection plus 48 h differentiation (about 5 days). Treatment: five arms for 48 h: vehicle, AG1478 10 µM, BMP2/7 200 ng/ml, both together, or 10% serum. Detection: 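Transglutaminase 1 immunostaining divided by DNA staining in each well, background removed, then z-scored versus every test siRNA on that plate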. Scale: z-score, vehicle: higher = more differentiation marker per cell.
In all, the deposit lists 331 reagents; below is a part drawn at random. 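Each arm had three replicate z-scores, but only the first replicate is printed; higher values mean more differentiation marker per cell.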 Further read-outs or replicates are left out here. Reagent sequences are not shown.

| Target gene | z-score, vehicle |
| --- | --- |
| HDAC5 | -0.332 |
| UHRF2 | -0.667 |
| L3MBTL1 | 2.19 |
| KDM5C | -0.068 |
| BRWD3 | 0.369 |
| PRMT2 | 1.46 |
| SIRT5 | 0.537 |
| ZMYND11 | -0.288 |
| PRDM1 | 0.269 |
| PRDM16 | -0.534 |
| AKAP1 | -0.0519 |
| PHF14 | 1.02 |
| TAF1L | 0.218 |
| SFMBT2 | -0.694 |
| HDAC6 | -0.321 |
| CBX7 | -0.735 |
| SMARCC1 | -0.876 |
| CBX1 | -0.234 |
| PHRF1 | 0.749 |
| MDC1 | 0.0903 |
